These are yes or no findings as the source states them, for the method shown. Some binding calls cover weakened binding; strength is not graded here. For some assays here: Sequences can lack the tags named with a protein.
Legend:
FUNDC1(1–50)-GST (human) [1] = target: T1, FUNDC1(1–50)-GST (human) (UniProt Q8IVP5); assay: microscopy-based bead assay; GST-tagged cargo receptors on beads, GFP-tagged FIP200-CTR or full-length FIP200 in solution, with the kinases TBK1, MBP-ULK1, CK2 or Src (Y530F) and ATP/MgCl2; both purified
T1 sequence: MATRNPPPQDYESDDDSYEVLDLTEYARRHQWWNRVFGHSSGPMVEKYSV

By UniProt entry, the sequences of proteins in these tests, tags left out. Where a name states a change or a piece, a line headed by the entry shows the natural chain unless it says otherwise. Residues count along the entry.
UniProt O60238, residues 1-182: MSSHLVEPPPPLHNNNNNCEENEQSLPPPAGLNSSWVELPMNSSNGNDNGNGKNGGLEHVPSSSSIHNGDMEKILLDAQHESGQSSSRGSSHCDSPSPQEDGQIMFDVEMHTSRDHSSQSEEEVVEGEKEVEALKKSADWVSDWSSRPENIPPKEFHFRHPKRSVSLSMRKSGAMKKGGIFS
UniProt Q9BXK5, residues 1-465: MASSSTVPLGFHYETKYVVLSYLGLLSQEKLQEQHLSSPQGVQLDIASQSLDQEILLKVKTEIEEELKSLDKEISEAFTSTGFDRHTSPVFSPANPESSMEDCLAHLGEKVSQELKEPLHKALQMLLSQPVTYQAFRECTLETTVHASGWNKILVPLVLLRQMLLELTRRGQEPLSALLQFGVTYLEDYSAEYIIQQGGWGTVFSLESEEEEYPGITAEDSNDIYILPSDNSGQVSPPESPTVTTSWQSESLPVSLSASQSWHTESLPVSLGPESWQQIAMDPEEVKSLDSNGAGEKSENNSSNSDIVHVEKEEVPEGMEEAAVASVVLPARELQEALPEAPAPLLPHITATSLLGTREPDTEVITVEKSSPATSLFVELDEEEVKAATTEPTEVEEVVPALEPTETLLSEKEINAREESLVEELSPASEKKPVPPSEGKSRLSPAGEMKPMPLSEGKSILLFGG
UniProt Q8TDY2: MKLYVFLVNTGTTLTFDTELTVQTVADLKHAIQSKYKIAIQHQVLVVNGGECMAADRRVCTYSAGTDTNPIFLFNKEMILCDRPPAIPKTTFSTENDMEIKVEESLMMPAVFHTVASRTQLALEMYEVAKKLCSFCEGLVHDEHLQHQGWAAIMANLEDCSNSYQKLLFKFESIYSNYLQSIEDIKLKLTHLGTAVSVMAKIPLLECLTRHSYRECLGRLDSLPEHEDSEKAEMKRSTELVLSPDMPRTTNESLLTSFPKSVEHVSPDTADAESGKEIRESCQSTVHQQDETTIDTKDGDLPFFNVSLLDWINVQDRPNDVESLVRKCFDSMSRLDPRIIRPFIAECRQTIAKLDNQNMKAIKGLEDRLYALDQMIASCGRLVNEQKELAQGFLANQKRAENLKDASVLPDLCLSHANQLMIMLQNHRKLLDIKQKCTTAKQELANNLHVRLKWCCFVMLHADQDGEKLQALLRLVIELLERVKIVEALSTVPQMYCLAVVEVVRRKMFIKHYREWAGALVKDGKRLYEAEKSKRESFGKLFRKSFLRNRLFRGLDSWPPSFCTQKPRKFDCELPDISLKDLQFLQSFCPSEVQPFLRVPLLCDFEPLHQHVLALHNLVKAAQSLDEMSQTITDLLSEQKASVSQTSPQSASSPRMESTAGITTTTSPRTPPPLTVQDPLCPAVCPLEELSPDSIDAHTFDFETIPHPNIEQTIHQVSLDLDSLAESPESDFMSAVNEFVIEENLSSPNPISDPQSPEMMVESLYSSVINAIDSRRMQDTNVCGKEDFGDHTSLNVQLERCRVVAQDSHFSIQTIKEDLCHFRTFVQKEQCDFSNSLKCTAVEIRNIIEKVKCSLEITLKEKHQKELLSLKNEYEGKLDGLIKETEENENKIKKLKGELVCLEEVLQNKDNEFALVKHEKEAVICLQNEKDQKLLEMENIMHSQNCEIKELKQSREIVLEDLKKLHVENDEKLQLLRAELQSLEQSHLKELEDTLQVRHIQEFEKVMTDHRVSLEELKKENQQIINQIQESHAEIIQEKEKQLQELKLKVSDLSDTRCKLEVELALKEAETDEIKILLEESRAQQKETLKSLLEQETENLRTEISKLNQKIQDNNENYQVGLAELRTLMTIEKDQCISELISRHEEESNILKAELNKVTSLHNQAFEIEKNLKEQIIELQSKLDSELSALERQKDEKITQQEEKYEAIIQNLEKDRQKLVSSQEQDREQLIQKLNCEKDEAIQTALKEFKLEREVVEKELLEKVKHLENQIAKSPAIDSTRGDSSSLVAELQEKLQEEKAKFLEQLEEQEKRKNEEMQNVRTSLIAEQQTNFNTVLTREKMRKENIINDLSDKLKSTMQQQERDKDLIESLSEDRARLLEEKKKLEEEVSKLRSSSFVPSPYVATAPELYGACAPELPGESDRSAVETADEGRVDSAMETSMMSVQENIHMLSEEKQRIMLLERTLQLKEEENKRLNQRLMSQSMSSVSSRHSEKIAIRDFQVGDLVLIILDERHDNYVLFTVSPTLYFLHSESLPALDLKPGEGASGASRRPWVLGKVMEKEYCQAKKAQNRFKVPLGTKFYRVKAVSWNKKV
UniProt Q6ZNE5: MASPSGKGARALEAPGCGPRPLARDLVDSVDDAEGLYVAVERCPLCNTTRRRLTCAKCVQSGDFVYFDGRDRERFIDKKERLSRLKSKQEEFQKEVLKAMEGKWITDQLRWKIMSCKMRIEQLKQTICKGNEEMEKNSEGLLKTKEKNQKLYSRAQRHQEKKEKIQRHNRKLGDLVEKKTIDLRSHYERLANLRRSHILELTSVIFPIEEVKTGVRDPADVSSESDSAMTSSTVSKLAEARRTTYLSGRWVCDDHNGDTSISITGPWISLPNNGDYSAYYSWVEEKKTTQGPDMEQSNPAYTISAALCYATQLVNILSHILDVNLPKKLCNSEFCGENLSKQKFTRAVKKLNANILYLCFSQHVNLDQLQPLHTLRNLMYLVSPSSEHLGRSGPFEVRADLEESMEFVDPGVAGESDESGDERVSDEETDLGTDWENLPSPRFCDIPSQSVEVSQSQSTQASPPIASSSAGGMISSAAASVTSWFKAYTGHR

NIX(1–182)-GST (human) [2] = target: NIX(1–182)-GST (human) (UniProt O60238); assay: as above
[3] = target: BCL2L13(1–465)-GST (human) (UniProt Q9BXK5); assay: as above
NIX(1–182)-GST (human) [4] = target: NIX(1–182)-GST (human) (UniProt O60238); assay: microscopy-based bead assay; GST-tagged bait on Glutathione Sepharose 4B beads, GFP- or mCherry-tagged prey in solution, confocal imaging; both purified
FUNDC1(1–50)-GST (human) [5] = target: T1, FUNDC1(1–50)-GST (human); assay: microscopy-based bead assay; GST-tagged cargo receptors on beads, GFP-tagged FIP200-CTR or full-length FIP200 in solution, in the presence of lambda protein phosphatase; both purified
NIX(1–182)-GST (human) [6] = target: NIX(1–182)-GST (human) (UniProt O60238); assay: as above
[7] = target: BCL2L13(1–465)-GST (human) (UniProt Q9BXK5); assay: as above

Substance	binding (FUNDC1(1–50)-GST (human) [1])	binding (NIX(1–182)-GST (human) [2])	binding [3]	binding (NIX(1–182)-GST (human) [4])	binding (FUNDC1(1–50)-GST (human) [5])	binding (NIX(1–182)-GST (human) [6])	binding [7]
FIP200-GFP (full-length FIP200) (from UniProt Q8TDY2 1-1594)	binds	no binding	binds	no binding	binds	no binding	binds
mCherry-tagged PI3KC3–C1 complex (from UniProt Q6ZNE5 1-492; Q8NEB9 1-887; Q99570 1-1358; Q14457 1-450)	–	–	–	no binding	–	–	–

Source: paper PMC12339401
